PubChem BioAssay AID720505, Drosophila RNAi Screening Center – 2013

Aim: 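Knock-downs that reduce calcium influx once internal stores are emptied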 (primary screen)
Cell system: Drosophila S2R+ cells
Reagent: long dsRNA against Drosophila genes
Conditions: thapsigargin (2 µM) in calcium-free buffer to empty internal stores, then 2 mM calcium added back
Measured: 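Fluo-4 signal in 384-well plates read on a FLIPR after thapsigargin (2 µM, calcium-free) store depletion and 2 mM calcium add-back; unnormalised mean endpoint per well; screen run twice, selected wells retested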
Direction: calcium signal and retest calcium signal: higher = more calcium entry after store depletion
Active means: 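About 1500 genes called as lowering calcium entry, by varying amounts, judged against per-plate control wells with STIM1 as positive and Rho1 as negative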
Calls: active = called as lowering calcium entry; inactive = not called
The deposit covers about 20,000 reagents; shown is a random part of those that have a named target and a result. Of all reagents, about 2,100 (10%) are marked active. 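Raw plate signals without normalisation; calls rest on control-based scores that were not deposited; replicate 2 separates called from uncalled poorly.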 Not stated in the record: the amount of reagent, the time to read-out.

Nup98-96 (Nucleoporin 98-96kD) [DRSC14209]: calcium signal, replicate 1 = 182; calcium signal, replicate 2 = 170; Outcome = inactive
Nup98-96 (Nucleoporin 98-96kD) [DRSC14210]: calcium signal, replicate 1 = 101; calcium signal, replicate 2 = 152; Outcome = active
TTLL5 (Tubulin tyrosine ligase-like 5) [DRSC14181]: calcium signal, replicate 1 = 210; calcium signal, replicate 2 = 185; Outcome = inactive
Cyp12a4 (Cytochrome P450 12a4) [DRSC16620]: calcium signal, replicate 1 = 188; calcium signal, replicate 2 = 147; Outcome = inactive
kermit [DRSC06074]: calcium signal, replicate 1 = 193; calcium signal, replicate 2 = 155; Outcome = inactive
Nrt (Neurotactin) [DRSC11237]: calcium signal, replicate 1 = 128; calcium signal, replicate 2 = 98.8; Outcome = inactive
beta4GalT7 (beta-4-galactosyltransferase 7) [DRSC14385]: calcium signal, replicate 1 = 210; calcium signal, replicate 2 = 176; Outcome = inactive
CG17598 [DRSC20636]: calcium signal, replicate 1 = 170; calcium signal, replicate 2 = 117; Outcome = inactive
CAH7 (Carbonic anhydrase 7) [DRSC15524]: calcium signal, replicate 1 = 77.8; calcium signal, replicate 2 = 84.2; Outcome = inactive
Wdfy2 (WD repeat and FYVE domain containing 2) [DRSC02822]: calcium signal, replicate 1 = 71.6; calcium signal, replicate 2 = 109; Outcome = inactive
XRCC1 [DRSC18729]: calcium signal, replicate 1 = 114; calcium signal, replicate 2 = 68.6; Outcome = inactive
CG2233 [DRSC18217]: calcium signal, replicate 1 = 86.2; calcium signal, replicate 2 = 93.5; Outcome = inactive
SMC1 (Structural maintenance of chromosomes 1) [DRSC16846]: calcium signal, replicate 1 = 212; calcium signal, replicate 2 = 197; Outcome = inactive
crm (cramped) [DRSC18754]: calcium signal, replicate 1 = 115; calcium signal, replicate 2 = 95.5; retest calcium signal, replicate 1 = 90; retest calcium signal, replicate 2 = 101; Outcome = inactive
yellow-f2 [DRSC16372]: calcium signal, replicate 1 = 94.7; calcium signal, replicate 2 = 136; Outcome = inactive
Cyp6t2Psi (pseudo) [DRSC01840]: calcium signal, replicate 1 = 3543; calcium signal, replicate 2 = 82.7; Outcome = inactive
CG13247 [DRSC11695]: calcium signal, replicate 1 = 102; calcium signal, replicate 2 = 149; Outcome = inactive
uif (uninflatable) [DRSC00963]: calcium signal, replicate 1 = 101; calcium signal, replicate 2 = 129; Outcome = inactive
uif (uninflatable) [DRSC03427]: calcium signal, replicate 1 = 71.4; calcium signal, replicate 2 = 158; Outcome = active
